From patent EP2185126B1, “USE OF TROXERUTIN TO QUENCH THE FLUORESCENCE OF DISODIUM PHENYL DIBENZIMIDAZOLE TETRASULFONATE” (Symrise AG, priority 2007, dated 2007)

Experiment: Quenching of fluorescence of disodium phenyl dibenzimidazole tetrasulfonate (no method given)

Compound | quenching of the fluorescence of disodium phenyl dibenzimidazole tetrasulfonate
COc1ccc([C@@H]2CC(=O)c3c(O)cc(O[C@@H]4O[C@H](CO[C@@H]5O[C@@H](C)[C@H](O)[C@@H](O)[C@H]5O)[C@@H](O)[C@H](O)[C@H]4O)cc3O2)cc1O [hesperidin] | do not effectively quench
C[C@@H]1O[C@@H](O[C@H]2[C@H](Oc3cc(O)c4c(c3)O[C@H](c3ccc(O)cc3)CC4=O)O[C@H](CO)[C@@H](O)[C@@H]2O)[C@H](O)[C@H](O)[C@H]1O [naringin] | do not effectively quench
O=c1c(O)c(-c2ccc(O)c(O)c2)oc2cc(O)cc(O)c12 [quercetin] | effective quenchers
C[C@@H]1O[C@@H](OC[C@H]2O[C@@H](Oc3c(-c4ccc(OCCO)c(OCCO)c4)oc4cc(OCCO)cc(O)c4c3=O)[C@H](O)[C@@H](O)[C@@H]2O)[C@H](O)[C@H](O)[C@H]1O [troxerutin, 7,3',4'-tris[O-(2-hydroxyethyl)]rutin] | effective quencher
